Experimental findings from article PMC7819943, “Rice protein-binding microarrays: a tool to detect cis-acting elements near promoter regions in rice” are described below.

This is one part of the list.

The experiment concerns the target T1, OsSMF1 (Oryza sativa, UniProt Q6ZLB0 1-436).
T1 sequence: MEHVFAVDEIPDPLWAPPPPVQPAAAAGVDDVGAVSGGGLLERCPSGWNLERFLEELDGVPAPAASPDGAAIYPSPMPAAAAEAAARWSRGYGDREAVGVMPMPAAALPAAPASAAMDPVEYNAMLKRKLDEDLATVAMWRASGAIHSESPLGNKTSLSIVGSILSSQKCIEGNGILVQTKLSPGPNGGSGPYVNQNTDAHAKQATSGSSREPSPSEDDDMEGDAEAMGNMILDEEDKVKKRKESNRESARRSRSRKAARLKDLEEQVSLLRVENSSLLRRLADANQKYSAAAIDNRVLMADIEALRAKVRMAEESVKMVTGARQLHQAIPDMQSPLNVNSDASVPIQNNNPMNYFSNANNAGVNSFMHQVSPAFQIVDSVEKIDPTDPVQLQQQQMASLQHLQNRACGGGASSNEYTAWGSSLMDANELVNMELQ
As to the kind of experiment: protein-binding microarray (RPBM); PBS, 2% BSA, 51.3 ng/ul salmon testes DNA, 50 uM zinc acetate, 200 nM TF, 25 C, 1 h; high values mean tight binding. Conditions: protein: recombinant; tags: N-terminal polyhistidine and DsRed monomer fusion (pET32a); chain copies: 2; label: CyDye5-dUTP incorporated in the synthesized complementary strand; 3' TTTTT single-stranded linker to array surface; dsDNA, one strand shown. A digest of the protocol:
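The binding signal is fluorescence intensity per array feature (arbitrary units). Readings came from an Axon 4000B scanner after a washed, 2% BSA-blocked, double-stranded custom Agilent array had been incubated for 1 h at 25 °C with 200 nM protein and 50 µM zinc acetate. The protein was a Ni–NTA-purified transcription factor fused N-terminally to polyhistidine and DsRed, expressed in E. coli BL21-CodonPlus.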
In the case of “CCTGCCTACCTCCGCGACATGCCGACGAGGCAGGTGGTGGCGGAGTCACCTAGTGCAG”, the binding signal is 3710 fluorescence intensity (a.u.).

With “CAGTAGACCAGCCTTTGTCCCCTAGTCAGCCAACTGTTCCCGGAGTCACCTAGTGCAG”, the binding signal is 3440 fluorescence intensity (a.u.).

As to “CATCTCAATCCTACAGCGCAGTAGATACCCCGGGCAAGGTCGGAGTCACCTAGTGCAG”, the binding signal was 3300 fluorescence intensity (a.u.).

As for “TTGACATGTGGGTCTCAAATGTTATTTTAATTTATTTTCCCGGAGTCACCTAGTGCAG”, the binding signal was 4020 fluorescence intensity (a.u.).

On to “ATACGGACGCACATTTGAAGTATTAAACGTAGAGTAATAACGGAGTCACCTAGTGCAG”, for which the binding signal is 19700 fluorescence intensity (a.u.).

On to “TCTCCTCCTCGGTTGCAAGCTGCTTCTGCCTTCTGCTGGGCGGAGTCACCTAGTGCAG”, for which the binding signal is 3370 fluorescence intensity (a.u.).

“GAGGTGGAGAGTTATTGAAAGTAAAGAACATATAGCTCCACGGAGTCACCTAGTGCAG”: the binding signal is 3260 fluorescence intensity (a.u.).

As for “AGAGGCAGCACCGCCGCCGGGGCAATCGAGCAGGCGGAGGCGGAGTCACCTAGTGCAG”, the binding signal is 3460 fluorescence intensity (a.u.).

Take “CATCATGTCCTATCTGAACTGTTACAACCACGACGTAGTACGGAGTCACCTAGTGCAG”: the binding signal is 3320 fluorescence intensity (a.u.).

In the case of “AGATTAGGTTGCTGTAGCCATGACTGTGAGTTGTGACTAGCGGAGTCACCTAGTGCAG”, the binding signal is 4030 fluorescence intensity (a.u.).

Regarding “GCTCGTGATATCCGAGGCCACTCACTTCACTTCCTACACACGGAGTCACCTAGTGCAG”, the binding signal is 29500 fluorescence intensity (a.u.).

Regarding “AAGTGGGCCATTAATAAATACATCATCTCTCTTTTATACCCGGAGTCACCTAGTGCAG”, the binding signal was 3350 fluorescence intensity (a.u.).

Take “CCGAATCCGGCCACCCCGCCGCCTCCACGCGCATCACCGCCGGAGTCACCTAGTGCAG”: the binding signal is 3220 fluorescence intensity (a.u.).

Turning to “ACCTCCGGCCCACGGACGCGACGCGCTTACACACATGGCCCGGAGTCACCTAGTGCAG”, the binding signal was 3580 fluorescence intensity (a.u.).

Turning to “AGAAAAGGAGGAAAAGAATTTCCCTGGGATTTAAAATATTCGGAGTCACCTAGTGCAG”, the binding signal is 26300 fluorescence intensity (a.u.).

On to “TCACTCCAGTCCAATGCACTCATCGCAGCCATGATGAATGCGGAGTCACCTAGTGCAG”, for which the binding signal is 3980 fluorescence intensity (a.u.).

Take “AACGTATCTCATGGGCGATCGATGACGACGTCGTGGCGTCCGGAGTCACCTAGTGCAG”: the binding signal was 6660 fluorescence intensity (a.u.).

With “TTTCCTATTCGTAGCCAATGCAACTGCATCCTGGAACGATCGGAGTCACCTAGTGCAG”, the binding signal was 19200 fluorescence intensity (a.u.).

Consider “CCAAAATTATTTCTAAAGCCACTATTGATGGAAGCAAAACCGGAGTCACCTAGTGCAG”, for which the binding signal is 5210 fluorescence intensity (a.u.).

Take “CGCTCGACTTCTCTTCTCTCATACACGTGTCATTAAATTTCGGAGTCACCTAGTGCAG”: the binding signal was 8480 fluorescence intensity (a.u.).

On to “CTGTTGATGCCATTGCAAAGGTACGATGTGCTTAGTGTTTCGGAGTCACCTAGTGCAG”, for which the binding signal is 15500 fluorescence intensity (a.u.).

In the case of “TTTGCCAAGCCACGGTTTTGTGGCTATGCGTTGGATGACGCGGAGTCACCTAGTGCAG”, the binding signal was 4640 fluorescence intensity (a.u.).

For “GGTCTCATGTCCAGCTGTTTGAATTTTGTACCTGAAATATCGGAGTCACCTAGTGCAG”, the binding signal was 3140 fluorescence intensity (a.u.).

As for “TTGTATATTCCATCGTAATCAAAGGCATTGGCGCGCAAACCGGAGTCACCTAGTGCAG”, the binding signal was 14500 fluorescence intensity (a.u.).

Consider “CAGACCCAACGTCGCCGTTGTTGGACCGCATGACGCAGCTCGGAGTCACCTAGTGCAG”, for which the binding signal was 5180 fluorescence intensity (a.u.).

Consider “GATCTGGTGAGGTGTCCAAAGTTGCTAATGTCCAATTGCTCGGAGTCACCTAGTGCAG”, for which the binding signal is 5410 fluorescence intensity (a.u.).

Turning to “ACTAGACGCATGCATCATCTACTTGCCTAAATTAGAGAGACGGAGTCACCTAGTGCAG”, the binding signal was 3440 fluorescence intensity (a.u.).

“ATTTCCACCTCACCCAACCCTGCCACGTCAATCTATCATACGGAGTCACCTAGTGCAG”: the binding signal was 13500 fluorescence intensity (a.u.).

Regarding “CCTTGCCGCTGTACCAGCCGACGGTGACGATCTCAGCGCTCGGAGTCACCTAGTGCAG”, the binding signal was 3260 fluorescence intensity (a.u.).

Take “GGTTATCAGTTCTGTGGGTTCGACACGTGCAGGACTCAACCGGAGTCACCTAGTGCAG”: the binding signal is 3200 fluorescence intensity (a.u.).

On to “GCCGCAACTTCGCAAGGGTCGGAGTCGCACGCGAACCCGCCGGAGTCACCTAGTGCAG”, for which the binding signal was 20800 fluorescence intensity (a.u.).

Regarding “TACAAATAAAACATAACCAGACCATACTACAAGTCACTCCCGGAGTCACCTAGTGCAG”, the binding signal is 3200 fluorescence intensity (a.u.).

For the sequence “GACTCTGTGCGCTCCATGTCATCCATCGTGCGGCCCACGTCGGAGTCACCTAGTGCAG”, the binding signal is 4250 fluorescence intensity (a.u.).

“TGCGTTTTGCAATCCTCTGTTTTACACTTAGGGCCCCTTTCGGAGTCACCTAGTGCAG”: the binding signal was 20100 fluorescence intensity (a.u.).

As to “ATGACTTACCTTCTACATGTTGACTTTCAGGAGTGACTGTCGGAGTCACCTAGTGCAG”, the binding signal is 3980 fluorescence intensity (a.u.).

For the sequence “GAAGATAGTACTAACTATATTTTGTAACGGAGAGATTGTTCGGAGTCACCTAGTGCAG”, the binding signal was 4130 fluorescence intensity (a.u.).

Take “TGTACTTCCGATGACACGTCGACGCTCTTGTGTGTTGTGTCGGAGTCACCTAGTGCAG”: the binding signal was 21400 fluorescence intensity (a.u.).

“CCGACGAGCCGTCGCCACGTGGACGAGGCGGCGGCGGCGGCGGAGTCACCTAGTGCAG”: the binding signal is 7180 fluorescence intensity (a.u.).

“ACATTGACTCAGCCACCACGTCACCTAAAATCGGGAACAGCGGAGTCACCTAGTGCAG”: the binding signal is 13000 fluorescence intensity (a.u.).

For the sequence “TAGTTGGCCAAAAGGTCCGCAGCCTGATGGCCCAGCCCACCGGAGTCACCTAGTGCAG”, the binding signal was 30800 fluorescence intensity (a.u.).

With “GGCCGACCTCGATGATGAGTTGTCACCCTCAAATTGGGCCCGGAGTCACCTAGTGCAG”, the binding signal is 6070 fluorescence intensity (a.u.).

With “GACAACAAACAACATTATCTCGATCCCGACCAGCTCAGCCCGGAGTCACCTAGTGCAG”, the binding signal is 3840 fluorescence intensity (a.u.).

On to “AGAAAGGAGGCTGATGTGGCCACGCTGACATGTGGGGCCCCGGAGTCACCTAGTGCAG”, for which the binding signal was 8790 fluorescence intensity (a.u.).

Take “GCACAGGCGTGTGGGGTTGGCAAAAGTAAAGCTGAAGGAGCGGAGTCACCTAGTGCAG”: the binding signal is 3190 fluorescence intensity (a.u.).

Regarding “GGCCCGCGGCGGAGTGCGGAGGGGAGGGGTGACGACGGAGCGGAGTCACCTAGTGCAG”, the binding signal was 3450 fluorescence intensity (a.u.).

For the sequence “ATAGTTTCCATAAACTCCACATCATCAAGAAACTAGTACTCGGAGTCACCTAGTGCAG”, the binding signal was 12600 fluorescence intensity (a.u.).

As for “TTTCTGTGACGGCCCGCGTAGCTTCGGAGGAAGCGACCACCGGAGTCACCTAGTGCAG”, the binding signal was 47700 fluorescence intensity (a.u.).

For “CCGTGCCATCTAAGCGCCACGTCAACCTCACAGACTAGGTCGGAGTCACCTAGTGCAG”, the binding signal is 18400 fluorescence intensity (a.u.).

Take “TGCGTCTCTGAAAAGATAATTCAGTGCCATGTGCTGCTGCCGGAGTCACCTAGTGCAG”: the binding signal is 3270 fluorescence intensity (a.u.).

Take “CTTCGATTCATTCCTCACGCACACACACTCTACTACTAGTCGGAGTCACCTAGTGCAG”: the binding signal was 5080 fluorescence intensity (a.u.).

For “TAGGATATTTAGTTGTGCTTGCAATGATGTCATTGCTTGTCGGAGTCACCTAGTGCAG”, the binding signal is 9340 fluorescence intensity (a.u.).

In the case of “ACTAGTGGCAACGGCAGACGAGAGAAAGATGGTGCCGACCCGGAGTCACCTAGTGCAG”, the binding signal was 23800 fluorescence intensity (a.u.).

On to “TACAGCCCGCTTCTCCTCTCTCTCCTCCACCTCAGCATTTCGGAGTCACCTAGTGCAG”, for which the binding signal is 7920 fluorescence intensity (a.u.).

“CGCGGACTCGCATATCGCTCGCCAGCGCGGACACCCCTGCCGGAGTCACCTAGTGCAG”: the binding signal was 4420 fluorescence intensity (a.u.).
